The values below come from PMC5642548.

By UniProt entry, the sequences of proteins in these tests, tags left out. Where a name states a change or a piece, a line headed by the entry shows the natural chain unless it says otherwise. Chains listed by the source or under a name are the forms on record and can include a tag or linker. Residues count along the entry.
dHD-TGIF1 (TGIF1 with the homeodomain deleted, 1-52:138-272), Flag-tagged (human (cDNA from HEK293T)) (Q15583, form named): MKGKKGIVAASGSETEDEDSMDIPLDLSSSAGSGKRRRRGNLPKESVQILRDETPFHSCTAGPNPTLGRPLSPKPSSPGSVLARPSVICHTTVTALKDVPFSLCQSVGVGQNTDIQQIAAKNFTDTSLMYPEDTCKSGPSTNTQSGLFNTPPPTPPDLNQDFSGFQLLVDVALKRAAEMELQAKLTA
UniProt P35222: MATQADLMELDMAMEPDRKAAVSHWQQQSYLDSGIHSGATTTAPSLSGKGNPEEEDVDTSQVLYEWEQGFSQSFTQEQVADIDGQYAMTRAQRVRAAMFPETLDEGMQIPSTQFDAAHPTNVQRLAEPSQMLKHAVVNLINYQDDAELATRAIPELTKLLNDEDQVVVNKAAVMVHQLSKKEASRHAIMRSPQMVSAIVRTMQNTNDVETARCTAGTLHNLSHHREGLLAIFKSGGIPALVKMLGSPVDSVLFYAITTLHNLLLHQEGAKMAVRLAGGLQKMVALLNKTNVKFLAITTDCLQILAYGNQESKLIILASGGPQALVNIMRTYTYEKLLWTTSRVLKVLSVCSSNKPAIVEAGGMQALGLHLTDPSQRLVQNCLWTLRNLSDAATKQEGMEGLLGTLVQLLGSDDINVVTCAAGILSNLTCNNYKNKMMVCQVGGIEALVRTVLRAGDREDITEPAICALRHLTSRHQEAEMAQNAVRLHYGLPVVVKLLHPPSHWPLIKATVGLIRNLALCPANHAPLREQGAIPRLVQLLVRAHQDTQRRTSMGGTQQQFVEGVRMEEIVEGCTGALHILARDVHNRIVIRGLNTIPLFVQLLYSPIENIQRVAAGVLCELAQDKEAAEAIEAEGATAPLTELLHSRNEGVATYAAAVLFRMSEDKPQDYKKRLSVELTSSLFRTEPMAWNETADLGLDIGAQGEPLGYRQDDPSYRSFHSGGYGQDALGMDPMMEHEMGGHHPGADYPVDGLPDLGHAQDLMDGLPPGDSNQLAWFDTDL

The target in this experiment is dHD-TGIF1 (TGIF1 with the homeodomain deleted, 1-52:138-272), Flag-tagged (human (cDNA from HEK293T)) (UniProt Q15583). Nature of the experiment: co-IP; HEK293FT cells co-transfected for 48 h; lysate in TNE buffer (20 mM Tris-HCl pH 7.4, 150 mM NaCl, 2 mM EDTA, 1 % Triton X-100); precipitated with anti-Flag antibody and protein A-Sepharose overnight at 4°C; anti-Myc immunoblotting. Background: Immunoblotting shows a protein as a band on a membrane.

No constants are given. Whether binding was seen depends on the method and setting. Binding seen in cells or lysates may run through a third protein.

In the case of β-catenin (from UniProt P35222 1-781), the binding result is reported as “no binding”.
